Measurements as given in PubChem BioAssay AID1688 (National Center for Advancing Translational Sciences (NCATS), 2009).
About 2,400 (1.1%) of roughly 220,000 compounds were called active. This list was built around the results that the source calls inconclusive (neither active nor inactive); the mix of calls is not that of the screen. Calls follow the shape of the dose curve; as a rule, active = well fitted inhibition curve with a large enough effect; inconclusive = small, poorly fitted or top-dose-only effect, or effect the other way; inactive = no such curve, though single readings can be large or run the other way. Potencies of inconclusive entries are doubtful fits and often do not repeat.

Test: qHTS Multiplex Assay to Identify Dual Action Probes in a Cell Model of Huntington: Aggregate Formation (GFP); also: nearly all actives have a fitted effect of over 60% in size
Settings: PC12 HttQ103-GFP aggregates, Acumen cytometry, 40 h; activity change, negative = inhibition: at 46.1 µM (top of the series) unless noted
Outline: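 Multiplexed with ATP-based cell death, this channel scores GFP aggregates in PC12 cells expressing inducible HTTex1-Q103-GFP. Induction used 100 nM tebufenozide; compounds were tested in concentration series.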
% is scaled to controls: 0 for no effect and ±100 for the full control effect; potency is read from the fitted curve at half-maximal effect.

Row | SMILES | Potency | activity change, negative = inhibition
1 | Cn1cc(C(=O)c2ccc(Cl)cc2Cl)cc1C(=O)N/N=C(\N)COc1ccccc1 | inconclusive: 25.1 µM [inhibitor, single point] | –
2 | Cn1c(Cc2cccs2)nnc1SC/C=C/c1ccccc1 | – | inactive: -2.4%
3 | Cc1cc([N+](=O)[O-])nn1CC(=O)NNC(=S)Nc1ccc(Cl)cc1 | inconclusive: 11.2 µM [activator, partial curve] | –
4 | COc1ccccc1C(O)(c1ccccc1)C(CN1CCOCC1)c1ccccc1 (stereo unspecified) | inconclusive: 35.5 µM [inhibitor, single point] | –
5 | Cc1cccc(NC(=O)CCCn2cc([N+](=O)[O-])cn2)n1 | inconclusive: 20 µM [inhibitor, single point] | –
6 | COc1ccc(/C=N/Nc2nc(-c3cccc(S(=O)(=O)N4CCCC4)c3)cs2)cc1OC | inconclusive: 3.98 µM [activator, full curve, poor fit] | –
7 | CCOc1ccc(S(=O)(=O)NCCC(=O)NC2=NCCS2)cc1 | inconclusive: 11.2 µM [inhibitor, single point] | –
8 | CCOC(=O)c1c(NC(=O)C2C3CCC(O3)C2C(=O)O)sc(C)c1-c1ccc(F)cc1 (stereo unspecified) | inconclusive: 10 µM [inhibitor, partial curve, poor fit] | –
9 | O=C1C(NS(=O)(=O)c2cccs2)=C(N2CCN(Cc3ccccc3)CC2)C(=O)c2ccccc21 | – | inactive: -17.7% [at 9.22 µM]
10 | COc1ccc(C(=O)/C(C#N)=N/Nc2ccc([N+](=O)[O-])cc2)cc1 | active: 1.26 µM | –
11 | Cc1ccnc(SCCn2c(N3CCN(C)CC3)nc3c2c(=O)[nH]c(=O)n3C)n1 | inconclusive: 0.891 µM [inhibitor, single point] | –
12 | CC(=O)c1cccc(NC(=O)c2ccc(S(=O)(=O)N3CCCCC3)cc2)c1 | inconclusive: 5.62 µM [inhibitor, single point] | –
13 | CCCCCC(=O)Nc1nc(C)c(-c2csc(Nc3cc(OC)ccc3OC)n2)s1 | inconclusive: 10 µM [inhibitor, single point] | –
14 | CCOC(=O)c1c(C)[nH]c(C)c1C(=O)CN1C(=O)NC(CC(C)C)C1=O (stereo unspecified) | inconclusive: 5.62 µM [activator, single point] | –
15 | COc1ccc(NS(=O)(=O)c2ccc(NC(=O)C3CCCO3)cc2)cc1 (stereo unspecified) | inconclusive: 10 µM [inhibitor, partial curve] | –
16 | O/N=C/c1ccc(-c2cc(Cl)ccc2Cl)o1 | inconclusive: 25.1 µM [inhibitor, single point] | –
17 | O=C(NS(=O)(=O)c1ccccc1)c1ccccc1F | – | inactive: -4.33%
18 | Cc1nn(CC(=O)N2N=C(C(F)F)CC2(O)C(F)F)c(C)c1[N+](=O)[O-] (stereo unspecified) | inconclusive: 31.6 µM [activator, single point] | –
19 | CCCCc1c(C)nc2ccccc2c1SCCC(=O)O | inconclusive: 8.91 µM [activator, partial curve] | –
20 | O=C(NCC1CCCO1)c1ccc2c(c1)C(=O)N(C1CCCCC1)C2=O (stereo unspecified) | – | inactive: -14%
21 | CN1CCN(C(=O)c2ccc3c(c2)N(Cc2ccc(Cl)cc2)C(=O)c2ccccc2S3=O)CC1 (stereo unspecified) | inconclusive: 31.6 µM [activator, single point] | –
22 | O=C(Oc1c(CN2CCOCC2)cc(Cl)c2cccnc12)c1ccc(F)cc1 | active: 1 µM | –

Row | SMILES | Potency | activity change, negative = inhibition
23 | Cc1ccc(O)c(C(=O)c2cnc3c(c2)CN(C)C(=O)N3)c1 | inconclusive: 3.16 µM [inhibitor, partial curve] | –
24 | Cc1ccc(-n2c(SCC(=O)Nc3cc(S(=O)(=O)N4CCOCC4)ccc3Cl)nc3ccccc3c2=O)cc1 | – | inactive: 3.27%
25 | CCc1cc(C(=O)c2ccc(C)cc2)c(NC(=O)CCl)s1 | – | inactive: 26%
26 | CC(=NCc1cccc(Cl)c1)c1nc(-c2ccco2)oc1O | inconclusive: 20 µM [inhibitor, single point] | –
27 | Cc1nn(-c2nc3ccccc3[nH]2)c(N)c1-c1ccc(Cl)cc1 | inconclusive: 22.4 µM [inhibitor, single point] | –
28 | Cc1ccc(Cn2cnc3sc4c(c3c2=O)CCC4)c(C)c1 | inconclusive: 25.1 µM [inhibitor, single point] | –
29 | O=C(NCc1n[nH]c(=S)n1-c1ccc(Br)cc1)c1ccc(S(=O)(=O)N2CCCC2)cc1 | inconclusive: 35.5 µM [activator, single point] | –
30 | CC(=O)N1N=C(c2ccccc2)CC1c1cn(Cc2ccccc2)c2ccccc12 (stereo unspecified) | inconclusive: 11.2 µM [inhibitor, single point] | –
31 | COC(=O)c1c(N)c(C#N)c2n1CCCCC2 | – | inactive: -3.53%
32 | S=C(Nc1ccccc1)Nn1cnnc1 | – | inactive: -0.258%
33 | Cc1ccc2nc(N/N=C/c3ccccc3F)nc(-c3ccccc3)c2c1 | inconclusive: 12.6 µM [inhibitor, single point] | –
34 | Cc1cc(Br)ccc1NC(=O)CNC(=O)Cn1ncc(Cl)c(Cl)c1=O | inconclusive: 5.62 µM [inhibitor, single point] | –
35 | Cc1ccccc1Oc1cc(-n2ncc(Cl)c(Cl)c2=O)ncn1 | inconclusive: 0.891 µM [inhibitor, single point] | –
36 | CCOc1ccc(NC2=C(OC)C(=O)c3ccccc3C2=O)cc1 | inconclusive: 6.31 µM [inhibitor, single point] | –
37 | CC(C)n1c(SCc2ccccc2F)nc2c1c(=O)n(C)c(=O)n2C | inconclusive: 10 µM [inhibitor, partial curve] | –
38 | O=C(N/N=C/C(Br)=C\c1ccccc1)c1ccc2nc[nH]c2c1 | inconclusive: 2.82 µM [activator, single point] | –
39 | Cc1ccc(CSCCNC(=O)CN(c2cc(C)ccc2C)S(C)(=O)=O)cc1 | inconclusive: 22.4 µM [inhibitor, single point] | –
40 | CCC(=O)c1ccc(Oc2ccc(C(=O)c3ccc(C)cc3)cc2[N+](=O)[O-])cc1 | inconclusive: 7.94 µM [inhibitor, partial curve] | –
41 | CC1CCN(c2oc(-c3ccccc3Cl)nc2C#N)CC1 | inconclusive: 15.8 µM [inhibitor, single point] | –
42 | CCC(=NCCc1c(C)[nH]c2ccc(C)cc12)C1=C(O)CC(c2ccccc2)CC1=O (stereo unspecified) | inconclusive: 0.631 µM [inhibitor, partial curve] | –
43 | Cc1ccc(NCCC#N)cc1C | inconclusive: 5.62 µM [activator, single point] | –
44 | CCOC(=O)c1cnn(-c2cccc(Cl)c2)c1N | inconclusive: 22.4 µM [inhibitor, partial curve] | –

Row | SMILES | Potency | activity change, negative = inhibition
45 | C/C=C/c1c(F)c(F)c(Oc2ccc(C(=O)O)cc2)c(F)c1F | inconclusive: 2.51 µM [inhibitor, partial curve, poor fit] | –
46 | COc1cc(/C=C2\SC(=S)N(c3cccnc3)C2=O)ccc1O | – | inactive: 4.93% [at 9.22 µM]
47 | FC(F)(F)c1cnc(Oc2ccc(-c3nnco3)cc2)c(Cl)c1 | inconclusive: 3.98 µM [inhibitor, partial curve] | –
48 | Cc1cc(N(CCO)CCO)ccc1C(c1ccc(N(CCO)CCO)cc1C)c1ccccc1Cl | inconclusive: 35.5 µM [activator, single point] | –
49 | CCOC(=O)c1c(CSc2ccccc2)n(C)c2ccc(O)c(CN3CCOCC3)c12 | – | inactive: 4%
50 | CC(=O)c1ccc(N2CCN(C(=O)/C=C/c3ccc(S(=O)(=O)NCc4ccco4)cc3)CC2)cc1 | inconclusive: 28.2 µM [inhibitor, partial curve] | –
51 | Cc1cc(C)nc(SCCn2c(N3CCOCC3)nc3c2c(=O)[nH]c(=O)n3C)n1 | – | inactive: 21%
52 | COC(=O)c1cc(NC(=O)C23CCC(C)(C(=O)O2)C3(C)C)cc(C(=O)OC)c1 (stereo unspecified) | inconclusive: 0.126 µM [inhibitor, full curve, poor fit] | –
53 | CN(c1ccc(C(=O)N2CCCCC2)cc1)S(C)(=O)=O | inconclusive: 2.82 µM [inhibitor, partial curve] | –
54 | O=C(c1ccc([N+](=O)[O-])cc1)n1nc(-c2ccccc2)nc1NCc1ccccc1 | inconclusive: 14.1 µM [inhibitor, single point] | –
55 | Cc1[nH]nc2c1C(c1ccccc1F)CC(=O)N2 (stereo unspecified) | – | inactive: -28.6%
56 | COc1ccc(S(=O)(=O)N2CCC(O)(c3ccc(Cl)cc3)CC2)cc1 | inconclusive: 22.4 µM [inhibitor, single point] | –
57 | CCC(C)(C)c1ccc(OCCCC[n+]2cccc(C)c2)c(C(C)(C)CC)c1 | inconclusive: 31.6 µM [inhibitor, single point] | –
58 | COc1cc(/C=N/NC(=O)c2cc(-c3cccn3C)n[nH]2)cc(OC)c1OC | inconclusive: 2.24 µM [activator, full curve, poor fit] | –
59 | Cc1ccccc1C1c2[nH]c3ccccc3c2CCN1C(=O)c1ccc(=O)n(C)n1 (stereo unspecified) | – | inactive: 5.41%
60 | CCCCCCCC(=O)N/N=C/c1ccc([N+](=O)[O-])o1 | – | inactive: -12.9%
61 | CC(=O)Oc1ccccc1C1OCCN1C(C)=O (stereo unspecified) | – | inactive: 9.82%
62 | O=C(/C=C/c1ccc([N+](=O)[O-])s1)N1CCCCC1 | inconclusive: 25.1 µM [inhibitor, single point] | –
63 | CCOc1cccc(Nc2cc3n(c(=O)n2)CCc2cc(OC)c(OC)cc2-3)c1 | inconclusive: 11.2 µM [activator, partial curve] | –
64 | Cc1ccc(S(=O)(=O)NCCNc2ccccc2[N+](=O)[O-])cc1 | inconclusive: 12.6 µM [inhibitor, partial curve] | –
65 | CCOc1ccc(C(c2c(NC(=O)c3ccccc3)sc(C)c2C)N2CCN(C)CC2)cc1 (stereo unspecified) | – | inactive: -24%
66 | COc1cc(C2C(C#N)=C(N)Oc3cc4c(cc32)OCO4)cc(OC)c1OC (stereo unspecified) | inconclusive: 0.1 µM [inhibitor, full curve] | –

Some of the entries so far, as comma-separated lines:
Row,SMILES,Potency,"activity change, negative = inhibition"
45,C/C=C/c1c(F)c(F)c(Oc2ccc(C(=O)O)cc2)c(F)c1F,"inconclusive: 2.51 µM [inhibitor, partial curve, poor fit]",–
50,CC(=O)c1ccc(N2CCN(C(=O)/C=C/c3ccc(S(=O)(=O)NCc4ccco4)cc3)CC2)cc1,"inconclusive: 28.2 µM [inhibitor, partial curve]",–
51,Cc1cc(C)nc(SCCn2c(N3CCOCC3)nc3c2c(=O)[nH]c(=O)n3C)n1,–,inactive: 21%
52,COC(=O)c1cc(NC(=O)C23CCC(C)(C(=O)O2)C3(C)C)cc(C(=O)OC)c1 (stereo unspecified),"inconclusive: 0.126 µM [inhibitor, full curve, poor fit]",–
55,Cc1[nH]nc2c1C(c1ccccc1F)CC(=O)N2 (stereo unspecified),–,inactive: -28.6%
